Results from US7902185B2, “Treatment of neurodegenerative diseases using proteasome modulators” (ALS Therapy Development Foundation, Inc., priority 2002, dated 2011).

Key:
[1] = system: SOD1 G93A mouse model of ALS; test: Survival in SOD1 G93A mouse model of ALS; conditions: for Female (% effect on survival) / Female (Days) survival: females; for Female (% effect on survival) / Combined (% effect on survival) / Male (% effect on survival): vs control; for Combined (% effect on survival) / Combined (Days) survival: males+females; for Male (% effect on survival) / Male (Days) survival: males; for Combined (Days) survival / Female (Days) survival / Male (Days) survival: mean; for Female (Days) survival / Male (Days) survival: treated;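 as to all read-outs here: heterozygous transgenic SOD1 G93A mice dosed from 60 days of age until death, checked daily for death, compared with vehicle-treated controls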
[2] = system: SOD1 G93A mouse model of ALS; test: Neurological score in SOD1 G93A mouse model of ALS; type: in vivo; conditions: Combined Riluzole studies (100% Litter matched)
Protocol: Neurological Scoring: From day 85 onward, neurological score was recorded on a 4-point scale: • 0=Normal reflex on the hind limbs (animal will splay its hind limbs when lifted by its tail) • 1=Abnormal reflex (Lack of splaying of hind limbs when animal is lifted by the tail). • 2=Abnormal reflex and visible evidence of paralysis • 3=Lack of reflex and total paralysis of hind limbs. • 4=Inability to right themselves when placed on the sides in 30 seconds or found dead. The animals are sacrificed at this stage if alive.

[3] = Combined Riluzole studies (100% Litter matched)
[4] = study Riluzole-1, 20 mg/Kg/day in drinking water
[5] = study Riluzole-2, 20 mg/Kg/day in drinking water

Question: How did the “Female (% effect on survival)” value [1, 3] turn out when `Nc1nc2ccc(OC(F)(F)F)cc2s1` [Riluzole] was run?
Answer: The value was 3%.

Question: And the “Combined (% effect on survival)” value [1, 3]?
Answer: Its value is 2%.

Question: What about the “Male (% effect on survival)” value [1, 3] of the same compound?
Answer: Its value is 1%.

Question: What about the “Combined (Days) survival” value ([1]; Combined Riluzole studies (100% Litter matched), treated N=33) of the same compound?
Answer: The value was 135 days.

Question: And the “Female (Days) survival” value [1, 3]?
Answer: The value was 137 days.

Question: What about the “Male (Days) survival” value [1, 3] of the same compound?
Answer: Its value is 133 days.

Question: And the “Female (% effect on survival)” value ([1]; study Riluzole-1)?
Answer: Its value is 6%.

Question: What about the “Combined (% effect on survival)” value ([1]; study Riluzole-1) of the same compound?
Answer: The value was 2%.

Question: And the “Male (% effect on survival)” value ([1]; study Riluzole-1)?
Answer: Its value is −1.5%.

Question: What about the “Combined (Days) survival” value ([1]; study Riluzole-1, treated N=20, 20 mg/Kg/day in drinking water) of the same compound?
Answer: The value was 134 days.

Question: And the “Female (Days) survival” value [1, 4]?
Answer: The value was 138 days.

Question: And the “Male (Days) survival” value [1, 4]?
Answer: The value was 131 days.

Question: And the “Female (% effect on survival)” value ([1]; study Riluzole-2)?
Answer: Its value is “None”.

Question: What about the “Combined (% effect on survival)” value ([1]; study Riluzole-2) of the same compound?
Answer: The value was 2%.

Question: And the “Combined (Days) survival” value ([1]; study Riluzole-2, treated N=15, 20 mg/Kg/day in drinking water)?
Answer: Its value is 136 days.

Question: And the “Female (Days) survival” value [1, 5]?
Answer: Its value is 136 days.

Question: What about the “Male (Days) survival” value [1, 5] of the same compound?
Answer: The value was 136 days.

Question: And the “Neurological score significance (Males & Females combined)” value [2]?
Answer: The value was “no significant effect”.
